Results from PubChem BioAssay AID504834 (National Center for Advancing Translational Sciences (NCATS), 2011).
Hit rate of the full screen: of about 320,000 compounds, about 22,000 (6.9%) were called active. Inconclusive means that the source gave no clear call. Such entries were picked first, then a sample of the others. Calls come from the whole dose curve; as a rule, active = well fitted inhibition curve with a large enough effect; inconclusive = small, poorly fitted or top-dose-only effect, or another doubt; inactive = no such curve, though single readings can be large or run the other way. Potencies of inconclusive entries are doubtful fits and often do not repeat.

assay: Primary qHTS for delayed death inhibitors of the malarial parasite plastid, 96 hour incubation; conditions: P. falciparum luciferase reporter growth; series mostly up to 28.7 µM; activity change, negative = inhibition: at the top concentration
In short: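 Readout is luminescence from an integrated firefly luciferase in P. falciparum. Red cells, 2% hematocrit and 0.05% parasitemia final, were cultured with compound through two parasite generations (96 hours) at 37 C, 5% CO2.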
% is set by controls: 0 for no effect and ±100 for the full control effect; potency is the fitted concentration of half-maximal effect.

| SMILES | activity change, negative = inhibition | Potency |
| --- | --- | --- |
| Cc1ccsc1/C=C(\C#N)C(=O)NCc1cccnc1 | inactive: 38.6% | – |
| CCOC(=O)c1c(CN(CC)CC)n(-c2ccccc2)c2ccc(O)cc12 | – | inconclusive: 13.1 µM [inhibitor, partial curve, poor fit] |
| CCCCN1c2cc(C)c(O)cc2C(C(=O)OCC)C1C (centres undefined) | inactive: 45.7% | – |
| CCCCOc1ccc(C(=O)CCN2CCOCC2)cc1 | inactive: -2.17% | – |
| CCO[C@H]1OC(C(=O)NC2CC2)=C[C@@H](c2ccc3c(c2)OCO3)[C@@H]1CCCO | inactive: -18.1% | – |
| COC(=O)Cc1c(O)ccn(Cc2ccc3c(c2)OCO3)c1=O | – | inconclusive: 0.0928 µM [inhibitor, full curve, poor fit] |
| COc1ccc(CCNC(=O)C(C)c2ccc([N+](=O)[O-])cc2)cc1 (centres undefined) | – | active: 8.28 µM |
| Cc1c(Cl)c([N+](=O)[O-])nn1Cc1ccc(C(=O)N/N=C\c2cccc(Br)c2)o1 | – | inconclusive: 14.7 µM [inhibitor, partial curve, poor fit] |
| O=C1c2ccccc2C(O)N1c1ccc(Cl)cc1 (centres undefined) | – | inconclusive: 16.5 µM [inhibitor, partial curve, poor fit] |
| CCOC(=O)c1c(NC(C)=O)sc2c1CCC(C=O)=C2Sc1ccccc1 | – | inconclusive: 1.47 µM [inhibitor, partial curve, poor fit] |
| Cc1cc(C)c2cc(CN(Cc3cccnc3)C(=O)c3ccc(F)cc3)c(Cl)nc2c1 | – | inconclusive: 2.33 µM [inhibitor, full curve] |
| Cc1ccc2nc(-c3ccc(O)cc3)c(Nc3ccc4c(c3)OCCO4)n2c1 | – | inconclusive: 0.828 µM [inhibitor, full curve, poor fit] |
| COc1ccccc1C(=O)NC1CC(C)(C)NC(C)(C)C1 | – | inconclusive: 9.28 µM [inhibitor, single point] |
| Cc1c(C(=O)N2c3ccccc3Sc3ccccc32)cccc1[N+](=O)[O-] | – | inconclusive: 13.1 µM [inhibitor, single point] |
| Cc1ccc(N(CC(=O)N2CCCC2)S(C)(=O)=O)cc1C | – | active: 7.38 µM |
| O=C(O)CN1C(=O)/C(=C\c2cccc(OCc3ccc(Cl)cc3)c2)SC1=S | – | inconclusive: 18.5 µM [inhibitor, partial curve, poor fit] |
| CN1C(c2ccc(F)cc2)=CS/C1=C(/C#N)c1nnc(N2CCOCC2)n1-c1ccccc1 | – | inconclusive: 2.33 µM [inhibitor, full curve] |
| CC(Cc1cccs1)NC(=O)NC1CCCCC1 (centres undefined) | – | inconclusive: 18.5 µM [inhibitor, single point] |
| CN(c1ccccc1)S(=O)(=O)c1cccc(NC(=O)CN2C(=O)NC3(CCCCC3)C2=O)c1 | – | inconclusive: 14.7 µM [inhibitor, single point] |
| COc1ccccc1N1CCN(C(c2ccccc2Cl)c2nnnn2C(C)(C)C)CC1 (centres undefined) | – | inconclusive: 4.65 µM [inhibitor, partial curve, poor fit] |
| Cc1cc(C)cc(OC(=O)COc2ccccc2C)c1 | – | inconclusive: 9.28 µM [inhibitor, partial curve, poor fit] |
| Cc1nn(S(=O)(=O)c2cccc([N+](=O)[O-])c2)c(C)c1Br | inactive: 9.81% | – |
| CCOC(=O)CCc1c(C)nc(SCC(=O)O)c(C#N)c1C | – | inconclusive: 0.0586 µM [inhibitor, full curve, poor fit] |

| SMILES | activity change, negative = inhibition | Potency |
| --- | --- | --- |
| CCC1=NN(C(=O)Cc2ccc([N+](=O)[O-])cc2)C(O)(C(F)(F)F)C1 (centres undefined) | – | inconclusive: 1.17 µM [inhibitor, partial curve] |
| CCOc1ccccc1Nc1cc2n(c(=O)n1)CCc1cc(OC)c(OC)cc1-2 | – | inconclusive: 4.15 µM [inhibitor, partial curve] |
| CCC1CCCCN1CCCNC(=O)c1cc2c(Cl)nc3ccccc3c2s1 (centres undefined) | – | inconclusive: 1.04 µM [inhibitor, partial curve, poor fit] |
| COC(=O)c1c(NC(=O)c2ccc(S(=O)(=O)N3CCOCC3)cc2)sc2c1CCN(C(C)C)C2 | – | inconclusive: 18.5 µM [inhibitor, single point] |
| Cc1nc2ccc(NC(=O)c3cccs3)cc2s1 | inactive: -10.5% | – |
| C=CCN(CC=C)S(=O)(=O)c1ccc(NC(=O)COc2ccccc2OC)cc1 | – | inconclusive: 18.5 µM [inhibitor, single point] |
| O=C(NCCCO)c1cc2c([nH]c3ccccc32)c(-c2ccc(F)cc2)n1 | – | inconclusive: 13.1 µM [inhibitor, single point] |
| O=C1c2cnccc2CN1Cc1ccccc1 | – | active: 3.29 µM |
| COC(=O)c1ccc2ncccc2c1 | inactive: -23.9% | – |
| CC1(c2ccccc2)NC(=O)N(CC(=O)N2CCN(S(=O)(=O)c3cccc([N+](=O)[O-])c3)CC2)C1=O (centres undefined) | inactive: -1.44% | – |
| Cc1ccc(-n2nc3c(c2NC(=O)/C=C\c2ccc4c(c2)OCO4)CSC3)cc1 | – | active: 13.1 µM |
| COc1ccc(CCNCC(O)Cn2ccc3ccccc32)cc1OC (centres undefined) | – | inconclusive: 11.7 µM [inhibitor, partial curve] |
| CCN(CC)CCCN1C(=O)C(=O)/C(=C(/O)c2ccc(OC)c(Cl)c2)C1c1ccco1 (centres undefined) | – | inconclusive: 9.28 µM [inhibitor, single point] |
| O=C(CSc1nc2c(cnn2-c2ccc(F)cc2)c(=O)[nH]1)N1CCCc2ccccc21 | – | inconclusive: 2.33 µM [inhibitor, full curve, poor fit] |
| COc1ccc(-n2nnnc2SCC(=O)c2ccc(O)c(O)c2)cc1 | inactive: -5.73% | – |
| COCCC(=O)N1CCC(Oc2ccc(C(=O)N(C)Cc3cc(C)no3)cc2)CC1 | inactive: -23.1% | – |
| O=C(COc1ccccc1F)Nc1ccc(-c2nc3ccccc3s2)cc1 | inactive: 173% | – |
| COc1cccc(NC(=O)CSC2=NN3CCCC(=O)N=C3S2)c1 | inactive: 3.03% | – |
| CCOC(=O)CCc1c(C)c2ccc(OC3CCCCC3=O)c(C)c2oc1=O (centres undefined) | – | inconclusive: 18.5 µM [inhibitor, single point] |
| CC(C(=O)N1CCc2ccccc21)N(C)CC(=O)Nc1cccc(F)c1 (centres undefined) | – | inconclusive: 1.17 µM [inhibitor, partial curve, poor fit] |
| O=C(CSc1ccccc1)Nc1nnc(COc2ccc(Cl)cc2)s1 | inactive: 51.7% | – |
| NNc1nnc(-c2ccccc2)c(-c2ccccc2)n1 | – | inconclusive: 18.5 µM [inhibitor, partial curve, poor fit] |
| CCc1cc(CNC(=O)C2CCC(=O)N(Cc3ccc(Cl)cc3)C2)on1 (centres undefined) | inactive: 7.89% | – |

| SMILES | activity change, negative = inhibition | Potency |
| --- | --- | --- |
| Cc1ccc(NC(=S)NC(C)(C)C)c([N+](=O)[O-])c1 | – | inconclusive: 0.586 µM [inhibitor, full curve, poor fit] |
| COCC(=O)Nc1nc(-c2ccc([N+](=O)[O-])cc2)cs1 | inactive: 2.53% | – |
| CCN(CC)C(=O)c1cc2c(=O)c3cc(Cl)ccc3oc2nc1C | inactive: 3.43% | – |
| CC1CC(CCC(=O)NC(=S)Nc2ccc(Cl)cn2)C(=O)O1 (centres undefined) | – | inconclusive: 18.5 µM [inhibitor, single point] |
| CC1CCN(C(=O)Cn2c(=O)oc3cc(S(=O)(=O)N4CCCCC4)ccc32)CC1 | – | inconclusive: 11.7 µM [inhibitor, single point] |
| COc1ccc(N2CCN(S(=O)(=O)c3ccc4c(c3)NC(=O)CS4)CC2)cc1 | – | inconclusive: 10.4 µM [inhibitor, partial curve, poor fit] |
| COc1ccc(S(=O)(=O)NCC(c2ccco2)N2CCc3ccccc3C2)cc1 (centres undefined) | inactive: 5.55% | – |
| O=C(COc1ccc2c(c1)OCO2)Nc1ccccc1F | – | inconclusive: 14.7 µM [inhibitor, partial curve, poor fit] |
| CCCC1=Nc2cc(C(=O)N3CCC(C(N)=O)CC3)ccc2Sc2ccccc21 | – | inconclusive: 8.28 µM [inhibitor, partial curve] |
| COc1cccc(CNC(=O)c2nnn(CC(=O)Nc3cccc(C)c3)c2N)c1 | – | inconclusive: 11.7 µM [inhibitor, single point] |
| CN(CC(=O)Nc1ccc(S(=O)(=O)N2CCCC2)cc1)Cc1ccc(Cl)c(Cl)c1 | – | inconclusive: 0.738 µM [inhibitor, partial curve, poor fit] |
| COc1ccc(CCC(=O)NNC(=O)Nc2ccc(C(C)C)cc2)cc1 | inactive: 32.2% | – |
| CC(Oc1ccc2c3c(c(=O)oc2c1)CCC3)C(=O)NCCCn1ccnc1 (centres undefined) | – | inconclusive: 16.5 µM [inhibitor, single point] |
| COc1ccc(CNC(=O)CN(c2ccccc2)S(=O)(=O)N(C)C)cc1 | – | inconclusive: 0.0052 µM [inhibitor, partial curve, poor fit] |
| CCC(C)(C)C(=O)Nc1cc([N+](=O)[O-])ccc1F | inactive: -21.3% | – |
| c1ccc(CCCNc2ncnc3nc[nH]c23)cc1 | – | inconclusive: 11.7 µM [inhibitor, single point] |
| COc1ccc(NC(=O)c2ccco2)cc1NC(=O)c1cccc(F)c1 | – | inconclusive: 0.104 µM [inhibitor, full curve, poor fit] |
| CC(=O)C1=NOC2C(=O)N(c3ccc(Cl)cc3)C(=O)C12 (centres undefined) | inactive: -0.115% | – |
| FC(F)(F)c1ccc(Cl)c(NC(=S)N/N=C/c2ccccc2Cl)c1 | – | active: 1.47 µM |
| Cc1ccc(C)c(NC(=O)c2cc(S(=O)(=O)N3CCOCC3)cn2C)c1 | inactive: -0.425% | – |
| CCc1nc2c(c(SC)nn2-c2ccccc2)c(N)c1C(=O)OC | – | inconclusive: 5.22 µM [inhibitor, partial curve, poor fit] |
| Cn1nc(C(F)(F)F)c(C(=O)Nc2cccc(Cl)c2)c1Cl | – | inconclusive: 2.08 µM [inhibitor, full curve] |
| CC1(C)Cc2c(cnn2-c2ccccc2)C(NC(=O)CCCN2CCCCC2=O)C1 (centres undefined) | – | active: 6.57 µM |

Reprinted from above (18 entries):

| SMILES | activity change, negative = inhibition | Potency |
| --- | --- | --- |
| Cc1c(C(=O)N2c3ccccc3Sc3ccccc32)cccc1[N+](=O)[O-] | – | inconclusive: 13.1 µM [inhibitor, single point] |
| Cc1ccc(N(CC(=O)N2CCCC2)S(C)(=O)=O)cc1C | – | active: 7.38 µM |
| O=C(O)CN1C(=O)/C(=C\c2cccc(OCc3ccc(Cl)cc3)c2)SC1=S | – | inconclusive: 18.5 µM [inhibitor, partial curve, poor fit] |
| CN1C(c2ccc(F)cc2)=CS/C1=C(/C#N)c1nnc(N2CCOCC2)n1-c1ccccc1 | – | inconclusive: 2.33 µM [inhibitor, full curve] |
| CC(Cc1cccs1)NC(=O)NC1CCCCC1 (centres undefined) | – | inconclusive: 18.5 µM [inhibitor, single point] |
| CN(c1ccccc1)S(=O)(=O)c1cccc(NC(=O)CN2C(=O)NC3(CCCCC3)C2=O)c1 | – | inconclusive: 14.7 µM [inhibitor, single point] |
| COc1ccccc1N1CCN(C(c2ccccc2Cl)c2nnnn2C(C)(C)C)CC1 (centres undefined) | – | inconclusive: 4.65 µM [inhibitor, partial curve, poor fit] |
| Cc1cc(C)cc(OC(=O)COc2ccccc2C)c1 | – | inconclusive: 9.28 µM [inhibitor, partial curve, poor fit] |
| Cc1nn(S(=O)(=O)c2cccc([N+](=O)[O-])c2)c(C)c1Br | inactive: 9.81% | – |
| CCOC(=O)CCc1c(C)nc(SCC(=O)O)c(C#N)c1C | – | inconclusive: 0.0586 µM [inhibitor, full curve, poor fit] |
| CCC1=NN(C(=O)Cc2ccc([N+](=O)[O-])cc2)C(O)(C(F)(F)F)C1 (centres undefined) | – | inconclusive: 1.17 µM [inhibitor, partial curve] |
| CCOc1ccccc1Nc1cc2n(c(=O)n1)CCc1cc(OC)c(OC)cc1-2 | – | inconclusive: 4.15 µM [inhibitor, partial curve] |
| CCC1CCCCN1CCCNC(=O)c1cc2c(Cl)nc3ccccc3c2s1 (centres undefined) | – | inconclusive: 1.04 µM [inhibitor, partial curve, poor fit] |
| COC(=O)c1c(NC(=O)c2ccc(S(=O)(=O)N3CCOCC3)cc2)sc2c1CCN(C(C)C)C2 | – | inconclusive: 18.5 µM [inhibitor, single point] |
| Cc1nc2ccc(NC(=O)c3cccs3)cc2s1 | inactive: -10.5% | – |
| C=CCN(CC=C)S(=O)(=O)c1ccc(NC(=O)COc2ccccc2OC)cc1 | – | inconclusive: 18.5 µM [inhibitor, single point] |
| O=C(NCCCO)c1cc2c([nH]c3ccccc32)c(-c2ccc(F)cc2)n1 | – | inconclusive: 13.1 µM [inhibitor, single point] |
| O=C1c2cnccc2CN1Cc1ccccc1 | – | active: 3.29 µM |
